Results are given in words; binding and its absence hold for the method and conditions named. Some binding calls cover weakened binding; strength is not graded here.

This note sets out measurements from CN112661849A.

The test deals with T1, 艰难梭菌谷氨酸脱氢酶(GDH) (艰难梭菌 (Clostridium difficile)) (UniProt P27346).
T1 sequence (looked up): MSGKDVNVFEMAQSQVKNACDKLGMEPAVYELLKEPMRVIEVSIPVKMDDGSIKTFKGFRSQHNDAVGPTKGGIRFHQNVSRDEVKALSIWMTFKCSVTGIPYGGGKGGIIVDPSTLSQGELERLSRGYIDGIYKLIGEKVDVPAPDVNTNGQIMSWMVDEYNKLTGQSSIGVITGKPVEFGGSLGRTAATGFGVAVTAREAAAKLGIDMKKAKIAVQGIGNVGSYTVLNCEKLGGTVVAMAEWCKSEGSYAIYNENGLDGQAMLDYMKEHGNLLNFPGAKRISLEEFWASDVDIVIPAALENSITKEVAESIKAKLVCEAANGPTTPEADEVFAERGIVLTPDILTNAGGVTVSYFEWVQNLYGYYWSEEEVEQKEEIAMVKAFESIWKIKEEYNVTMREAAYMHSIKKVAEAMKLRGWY
Put plainly: sandwich ELISA on stool specimens of CDI patients, 3B12 coated at 1 μg/mL as capture, 5E3-HRP as detector, P/N of OD450.

B1: 3B12单抗 (antibody, V domains shown)
VH: EVQLQQSGPELVKPGASVEMSCKASGYTFTSYVMHWVKQKPGQGLEWIGYINPYNYDTKYNEKFKGKASLTSDKSSSTAYMELSSLTSEDSAVYYCTRGGDFDYWGQGTTLTVSS
VL: QIVLTQSPAIMSASLGERVTMTCTASSSVYPSYLYWYQQKPGSSPKLWIYTTSNLASGVPARFSGSGSGTSYSLTISSMEAEDAATYYCHQYHRSRTFGGGTKLEIKR
On to B1, for which the binding result was “binds”.
